No constants are given. Whether binding was seen depends on the method and setting. In cells and extracts the contact can be indirect. Here binding means that the protein was enriched with, or labelled near, the bait; the list need not be complete. Where a sequence is shown, tags or fusion partners need not be part of it.
Target: T1, PbpTKL-AID-HA (P. berghei)
T1 sequence: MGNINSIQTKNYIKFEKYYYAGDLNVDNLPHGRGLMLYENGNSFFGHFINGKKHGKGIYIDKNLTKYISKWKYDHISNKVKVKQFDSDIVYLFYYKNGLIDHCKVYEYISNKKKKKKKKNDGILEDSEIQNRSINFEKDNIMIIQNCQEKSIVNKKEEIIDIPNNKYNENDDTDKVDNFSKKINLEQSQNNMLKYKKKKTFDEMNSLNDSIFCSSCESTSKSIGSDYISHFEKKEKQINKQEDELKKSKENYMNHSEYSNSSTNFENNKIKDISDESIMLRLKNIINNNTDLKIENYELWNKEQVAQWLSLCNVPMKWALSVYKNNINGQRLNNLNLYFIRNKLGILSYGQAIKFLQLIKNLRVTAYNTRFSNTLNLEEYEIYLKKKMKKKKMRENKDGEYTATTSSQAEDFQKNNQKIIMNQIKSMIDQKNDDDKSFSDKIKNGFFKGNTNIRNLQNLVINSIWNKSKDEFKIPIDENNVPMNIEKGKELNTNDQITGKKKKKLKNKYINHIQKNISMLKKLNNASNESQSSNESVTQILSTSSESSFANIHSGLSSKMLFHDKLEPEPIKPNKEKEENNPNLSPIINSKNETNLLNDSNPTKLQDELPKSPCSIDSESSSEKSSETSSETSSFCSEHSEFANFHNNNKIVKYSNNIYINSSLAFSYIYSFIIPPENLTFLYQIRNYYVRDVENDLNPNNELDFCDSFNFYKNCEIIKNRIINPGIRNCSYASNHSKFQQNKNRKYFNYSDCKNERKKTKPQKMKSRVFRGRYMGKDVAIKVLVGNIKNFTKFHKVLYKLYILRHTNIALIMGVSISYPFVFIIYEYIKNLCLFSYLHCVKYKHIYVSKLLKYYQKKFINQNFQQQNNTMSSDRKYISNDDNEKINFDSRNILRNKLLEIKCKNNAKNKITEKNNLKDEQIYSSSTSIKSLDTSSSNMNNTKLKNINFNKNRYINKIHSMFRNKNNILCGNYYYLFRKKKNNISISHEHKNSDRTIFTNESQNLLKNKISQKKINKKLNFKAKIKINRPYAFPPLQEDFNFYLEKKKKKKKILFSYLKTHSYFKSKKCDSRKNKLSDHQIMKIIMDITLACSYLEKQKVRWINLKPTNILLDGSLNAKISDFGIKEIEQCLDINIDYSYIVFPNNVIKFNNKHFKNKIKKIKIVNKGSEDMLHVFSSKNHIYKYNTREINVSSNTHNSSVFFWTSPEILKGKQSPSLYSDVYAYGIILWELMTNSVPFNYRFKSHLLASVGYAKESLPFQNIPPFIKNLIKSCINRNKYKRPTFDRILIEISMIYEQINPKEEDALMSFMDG
Assay: affinity purification with mass spectrometry; anti-HA agarose immunoprecipitation from ghost lysates of trophozoite-infected mouse erythrocytes (PbpTKL-AID-HA line) against total lysates of the wild-type pG230 line; NanoLC-MS/MS, three biological replicates

The chains behind the UniProt entries cited, without tags or fusion partners. Residues count along the entry.
UniProt Q64339, residues 1-155: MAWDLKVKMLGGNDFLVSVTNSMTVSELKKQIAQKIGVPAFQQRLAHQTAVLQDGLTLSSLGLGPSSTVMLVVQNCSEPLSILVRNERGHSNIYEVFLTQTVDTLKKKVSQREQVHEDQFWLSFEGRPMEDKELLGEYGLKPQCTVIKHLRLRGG

ISG15 (from UniProt Q64339 1-155)
binding: binds

From PMC6544628, “Plasmodium pseudo-Tyrosine Kinase-like binds PP1 and SERA5 and is exported to host erythrocytes” (Scientific Reports, 2019)
